Among the data in patent EP4803549A1 are binding values, retold here.

The test deals with cynomolgus monkey GPRC5D protein stably expressed on the 293T cell surface (cynomolgus monkey). Kind of test: flow cytometry on 293T cells expressing cynomolgus monkey GPRC5D.

No constants are given. Whether binding was seen depends on the method and setting. Binding calls can cover weak binding; strength is not graded here. Sequences can lack the tags named with a protein.

B1: camelid-derived anti-GPRC5D VHH-Fc antibody (antibody, human IgG1, V domains shown)
VH: EVQLQESGGGLVQAGGSLRLSCAASGIFLSASVMRWYRRAPGKQRELVASMLNSNTNYADSVKGRFTISRDNTKNTMYLQMNSLKPEDTAVYYCNAERSGVYWGQGTQVTVSS
Consider B1, for which the binding entry is on record as “binds”.
